PMC12817933
No constants are given. Whether binding was seen depends on the method and setting. Binding seen in cells or lysates may run through a third protein. Some binding calls cover weakened binding; strength is not graded here. Tags and fused reporters may be left off the sequences shown.

Target: CrPV 2B-eGFP fusion protein (WT) (cricket paralysis virus) (UniProt Q9IJX4)
Test: co-IP; GFP-Trap magnetic agarose on lysates of cells co-transfected with eGFP, 2B-eGFP or 2B(D29N)-eGFP and Sting-V5; lysis buffer 10 mM Tris-HCl pH 7.5, 150 mM NaCl, 0.5 mM EDTA, 0.5% NP-40, 1 mM PMSF; 1 h at 4°C; four washes with 0.05% NP40; western blot with eGFP, V5 and GAPDH antibodies

B1: Drosophila Sting-V5 (protein, UniProt A0A0B4LFY9 1-343)
chain: MAIASNVVEAGNAVRAEKGRKYFYFRKMIGDYIDTSIRIVATVFLADLLLRLYRCVVEYGSNGRYYLPEDRLWIILRRSCTYNNRSIYLIVGFLLVAFFRISVTGNYRNVMPTTLFLFQMPLYWIWSFTDMDQSTLSYSHWIRDSHGLDYAAGMASNYFHGYLKLSLPERKDDGLKHRLAMYEDKNNVTFGIKRLVILIPDEMFVNGVLESHLLDKAEPLETQFINRAGVYRPFKHDVYRMNKKVNGRTYYFAVEGATPMISFFDATYSNLSGTWQMQELKREIWIKFYKHLKELITTWPETRDLVELIIYNSHDSKGNLVDVGELLVAHMQNKTKTIDEISN
  binding: binds
